No constants are given. Whether binding was seen depends on the method and setting. In cells and extracts the contact can be indirect. Some binding calls cover weakened binding; strength is not graded here.
Molecular target: hypoxia-inducible factor (HIF)-2α (rat (endogenous in NRK-49F)) (UniProt Q9JHS1)
Test: co-IP; NRK-49F cells treated with NMN or sirtinol for 24 h; total cell lysates immunoprecipitated with an anti-HIF-2α antibody (Pierce kit); immune complexes analysed by western blot

Sequences of proteins named here, by UniProt entry; tags and fusion partners are left off.
UniProt Q9JHS1: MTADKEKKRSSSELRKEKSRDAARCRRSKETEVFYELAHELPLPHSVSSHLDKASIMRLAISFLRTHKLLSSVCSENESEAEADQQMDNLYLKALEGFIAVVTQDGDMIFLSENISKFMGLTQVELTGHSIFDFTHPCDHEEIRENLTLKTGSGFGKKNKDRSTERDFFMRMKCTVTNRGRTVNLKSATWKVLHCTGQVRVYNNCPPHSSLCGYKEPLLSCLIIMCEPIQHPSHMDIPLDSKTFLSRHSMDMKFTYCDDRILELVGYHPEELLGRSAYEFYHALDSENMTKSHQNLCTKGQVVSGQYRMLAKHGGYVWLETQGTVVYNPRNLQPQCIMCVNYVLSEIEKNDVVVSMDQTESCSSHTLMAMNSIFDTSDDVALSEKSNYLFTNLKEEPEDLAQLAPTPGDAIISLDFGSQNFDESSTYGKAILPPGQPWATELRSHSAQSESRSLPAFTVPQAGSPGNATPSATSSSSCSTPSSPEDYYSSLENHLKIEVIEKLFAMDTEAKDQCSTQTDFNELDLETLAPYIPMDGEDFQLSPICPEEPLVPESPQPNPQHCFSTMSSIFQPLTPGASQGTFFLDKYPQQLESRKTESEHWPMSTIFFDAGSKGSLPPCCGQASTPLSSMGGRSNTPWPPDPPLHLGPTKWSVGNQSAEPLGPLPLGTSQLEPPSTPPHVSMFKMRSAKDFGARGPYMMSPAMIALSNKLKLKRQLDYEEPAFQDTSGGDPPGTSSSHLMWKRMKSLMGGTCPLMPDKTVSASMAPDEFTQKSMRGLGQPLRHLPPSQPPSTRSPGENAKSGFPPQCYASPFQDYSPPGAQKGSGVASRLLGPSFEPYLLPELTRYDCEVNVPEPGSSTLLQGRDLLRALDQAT

B1: Sirtuin 1 (SIRT1) (enzyme, UniProt A0A0G2JZ79 1-741)
chain: MADEAALALQAGGSPSAAAAMEAASQPADEPLRKRPRRDGPGLGRSPGEPSAAAAAAAAAAGCEAASAAAPAALWREAAGAAAASAEREAPATAAAGDGDNGPGLRREPRAADDFDDDEGEEEDEAAAAAAAAIGYRDNLLLADEIITNGFHSCESDDDDRASHASSSDWTPRPRIGPYTFVQQHLMIGTDPRTILKDLLPETIPPPELDDMTLWQIVINILSEPPKRKKRKDINTIEDAVKLLQECKKIIVLTGAGVSVSCGIPDFRSRDGIYARLAVDFPDLPDPQAMFDIEYFRKDPRPFFKFAKEIYPGQFQPSLCHKFIALSDKEGKLLRNYTQNIDTLEQVAGIQRIIQCHGSFATASCLICKYKVDCEAVRGDIFNQVVPRCPRCPADEPLAIMKPEIVFFGENLPEQFHRAMKYDKDEVDLLIVIGSSLKVRPVALIPSSIPHEVPQILINREPLPHLHFDVELLGDCDVIINELCHRLGGEYAKLCCNPVKLSEITEKPPRTQKELVHLSELPPTPLHISEDSSSPERTVPQDSSVIATLVDQTIKNKVDDLEVSEPKSCVEEKSQEVQTYRNVESINVENPDFKAVGSSTGDKNERTSVAETVRKCWPNRLAKEQISKRLDGNQYLFVPPNRYIFHGAEVYSDSEDDALSSSSCGSNSDSGTCQSPSLEEPLEDESEIEEFYNGLEDDADRPECAGGSGADGGDQEAVNEAIAMKQELTDVNCTPDKSEHY
binding: binds
